The values that follow come from paper PMC7678849.

In this assay the target is 3x Flag-tagged O-GlcNAc site mutant NRF1 (Flag-AA-NRF1) (human). Description: co-IP; lysates of ADR cells stably expressing Flag-WT-NRF1 or Flag-AA-NRF1, anti-Flag magnetic beads, immunoblotting for endogenous HCF-1 and OGT.

These are yes or no findings as the source states them, for the method shown. In cells and extracts the contact can be indirect. Binding calls can cover weak binding; strength is not graded here.

B1: O-GlcNAc transferase (OGT), endogenous (enzyme, UniProt O15294 1-1046)
chain: MASSVGNVADSTEPTKRMLSFQGLAELAHREYQAGDFEAAERHCMQLWRQEPDNTGVLLLLSSIHFQCRRLDRSAHFSTLAIKQNPLLAEAYSNLGNVYKERGQLQEAIEHYRHALRLKPDFIDGYINLAAALVAAGDMEGAVQAYVSALQYNPDLYCVRSDLGNLLKALGRLEEAKACYLKAIETQPNFAVAWSNLGCVFNAQGEIWLAIHHFEKAVTLDPNFLDAYINLGNVLKEARIFDRAVAAYLRALSLSPNHAVVHGNLACVYYEQGLIDLAIDTYRRAIELQPHFPDAYCNLANALKEKGSVAEAEDCYNTALRLCPTHADSLNNLANIKREQGNIEEAVRLYRKALEVFPEFAAAHSNLASVLQQQGKLQEALMHYKEAIRISPTFADAYSNMGNTLKEMQDVQGALQCYTRAIQINPAFADAHSNLASIHKDSGNIPEAIASYRTALKLKPDFPDAYCNLAHCLQIVCDWTDYDERMKKLVSIVADQLEKNRLPSVHPHHSMLYPLSHGFRKAIAERHGNLCLDKINVLHKPPYEHPKDLKLSDGRLRVGYVSSDFGNHPTSHLMQSIPGMHNPDKFEVFCYALSPDDGTNFRVKVMAEANHFIDLSQIPCNGKAADRIHQDGIHILVNMNGYTKGARNELFALRPAPIQAMWLGYPGTSGALFMDYIITDQETSPAEVAEQYSEKLAYMPHTFFIGDHANMFPHLKKKAVIDFKSNGHIYDNRIVLNGIDLKAFLDSLPDVKIVKMKCPDGGDNADSSNTALNMPVIPMNTIAEAVIEMINRGQIQITINGFSISNGLATTQINNKAATGEEVPRTIIVTTRSQYGLPEDAIVYCNFNQLYKIDPSTLQMWANILKRVPNSVLWLLRFPAVGEPNIQQYAQNMGLPQNRIIFSPVAPKEEHVRRGQLADVCLDTPLCNGHTTGMDVLWAGTPMVTMPGETLASRVAASQLTCLGCLELIAKNRQEYEDIAVKLGTDLEYLKKVRGKVWKQRISSPLFNTKQYTMELERLYLQMWEHYAAGNKPDHMIKPVEVTESA
As for B1, the binding result was “binds”.
